Measurements taken from paper PMC2676555.

Biological target: Bcl-2 associated athanogene (BAG-1) S, wild type (human)
Assay: co-IP; H1299 cells co-transfected with p73α and wild type or mutant BAG-1S plasmids; lysate in HMKEN buffer (10 mM HEPES pH 7.2, 5 mM MgCl2, 142 mM KCl, 2 mM EGTA, 0.2% IGEPAL); BAG-1 immunoprecipitated with rabbit polyclonal TB3 (pre-immune serum as control), protein G-Sepharose, 4°C; blots for p73 (R26), BAG-1 (G3E2), HSC70 (B6)

binding: binds
B1: p73α (protein, UniProt O15350-1 1-636)
chain: MAQSTATSPDGGTTFEHLWSSLEPDSTYFDLPQSSRGNNEVVGGTDSSMDVFHLEGMTTSVMAQFNLLSSTMDQMSSRAASASPYTPEHAASVPTHSPYAQPSSTFDTMSPAPVIPSNTDYPGPHHFEVTFQQSSTAKSATWTYSPLLKKLYCQIAKTCPIQIKVSTPPPPGTAIRAMPVYKKAEHVTDVVKRCPNHELGRDFNEGQSAPASHLIRVEGNNLSQYVDDPVTGRQSVVVPYEPPQVGTEFTTILYNFMCNSSCVGGMNRRPILIIITLEMRDGQVLGRRSFEGRICACPGRDRKADEDHYREQQALNESSAKNGAASKRAFKQSPPAVPALGAGVKKRRHGDEDTYYLQVRGRENFEILMKLKESLELMELVPQPLVDSYRQQQQLLQRPSHLQPPSYGPVLSPMNKVHGGMNKLPSVNQLVGQPPPHSSAATPNLGPVGPGMLNNHGHAVPANGEMSSSHSAQSMVSGSHCTPPPPYHADPSLVSFLTGLGCPNCIEYFTSQGLQSIYHLQNLTIEDLGALKIPEQYRMTIWRGLQDLKQGHDYSTAQQLLRSSNAATISIGGSGELQRQRVMEAVHFRVRHTITIPNRGGPGGGPDEWADFGFDLPDCKARKQPIKEEFTEAEIH

These are yes or no findings as the source states them, for the method shown. Binding seen in cells or lysates may run through a third protein. Binding calls can cover weak binding; strength is not graded here.
